Laboratory results: US10208210B2, “Hydrophilic oil repellent and production method of same, surface coating material, coating film, resin composition, oil-water separation filter material, and porous body” (MITSUBISHI MATERIALS CORPORATION, priority 2014, dated 2019)

Assay: Oil water separation test with treated polypropylene nonwoven fabric, normal pressure filtration apparatus
Details: polypropylene nonwoven fabric treated with 9 g compound + 1 g polyvinyl butyral in 90 g methanol; 40 mL water + 40 mL n-hexadecane

SMILES	time until oil and water were completely separated
O=C(O)C(F)(C(F)(F)F)C(F)(F)N1C(F)(C(F)(F)F)C(F)(F)OC(F)(F)C1(F)C(F)(F)F.[Ca] (centres unmarked) [Synthesis Example 35, perfluoro[2-methyl-3-(3,5-dimethylmorpholino)propionic acid] calcium]	about 85 seconds
O=C(O)C(F)(F)C(F)(F)N(C(F)(F)C(F)(F)C(F)(F)C(F)(F)F)C(F)(F)C(F)(F)C(F)(F)C(F)(F)F.[Ca] [Synthesis Example 1, perfluoro(3-dibutylaminopropionic acid) calcium]	about 72 seconds
